In PMC10714642:
Results are given in words; binding and its absence hold for the method and conditions named. In cells and extracts the contact can be indirect. Some binding calls cover weakened binding; strength is not graded here.

Protein sequences, listed by entry. Tags and fused reporters are not part of them.
UniProt Q15208: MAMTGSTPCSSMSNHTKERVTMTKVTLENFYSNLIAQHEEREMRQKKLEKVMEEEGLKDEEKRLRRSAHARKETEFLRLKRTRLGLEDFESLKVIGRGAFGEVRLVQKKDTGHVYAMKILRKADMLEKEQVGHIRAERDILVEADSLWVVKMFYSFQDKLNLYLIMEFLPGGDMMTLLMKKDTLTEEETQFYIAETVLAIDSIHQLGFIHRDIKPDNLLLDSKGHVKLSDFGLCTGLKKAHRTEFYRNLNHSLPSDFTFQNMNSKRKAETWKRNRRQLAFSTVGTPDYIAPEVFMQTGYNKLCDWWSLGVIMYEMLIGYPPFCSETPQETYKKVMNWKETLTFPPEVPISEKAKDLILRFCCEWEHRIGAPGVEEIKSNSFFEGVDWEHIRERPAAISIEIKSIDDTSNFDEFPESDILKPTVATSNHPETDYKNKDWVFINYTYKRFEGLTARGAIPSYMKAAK

Target: T1, cytoplasmic activation/proliferation-associated protein-1 (Caprin-1) (human (Bxpc-3 and Panc-1 cells)) (UniProt Q14444)
T1 sequence: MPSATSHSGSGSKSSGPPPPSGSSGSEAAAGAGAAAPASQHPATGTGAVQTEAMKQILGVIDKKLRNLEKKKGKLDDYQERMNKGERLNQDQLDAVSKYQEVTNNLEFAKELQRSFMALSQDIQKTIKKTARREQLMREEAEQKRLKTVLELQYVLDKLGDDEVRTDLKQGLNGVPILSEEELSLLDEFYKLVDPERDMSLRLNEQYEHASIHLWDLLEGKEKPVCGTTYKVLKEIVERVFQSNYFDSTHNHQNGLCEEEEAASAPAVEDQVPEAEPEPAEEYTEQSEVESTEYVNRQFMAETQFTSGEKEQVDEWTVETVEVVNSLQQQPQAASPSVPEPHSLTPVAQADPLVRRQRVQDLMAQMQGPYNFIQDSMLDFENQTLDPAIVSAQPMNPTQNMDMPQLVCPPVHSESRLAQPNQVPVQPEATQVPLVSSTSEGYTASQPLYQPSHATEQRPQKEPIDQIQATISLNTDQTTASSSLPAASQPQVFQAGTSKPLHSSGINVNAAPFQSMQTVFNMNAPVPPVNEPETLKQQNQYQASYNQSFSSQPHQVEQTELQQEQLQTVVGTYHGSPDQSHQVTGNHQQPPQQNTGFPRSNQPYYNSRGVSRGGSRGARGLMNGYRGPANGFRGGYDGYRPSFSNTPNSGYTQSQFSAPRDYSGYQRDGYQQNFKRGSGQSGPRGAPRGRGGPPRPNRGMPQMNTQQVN
Assay: co-IP; Co-IP in Bxpc-3 and Panc-1 pancreatic cancer cell lines, detected by blot; which protein was precipitated is not told in the text shown

binding: binds
Substance: serine/threonine kinase 38 (STK38) (from UniProt Q15208 1-465)
